System: bloodstream forms of Trypanosoma brucei
Experiment: Resazurin cell viability assay, EC50 determinations against T. brucei
Type: cell-based, T. b. brucei (strain 427)
Conditions: read-out: EC50 of opioid receptor ligands against T. brucei

Which EC50 does the source give for C=CCN1CC[C@]23c4c5ccc(O)c4O[C@H]2C(=O)CC[C@@]3(O)[C@H]1C5 [Naloxone] here?
Its EC50 is over 100 µM.

Source: paper PMC3025325, “Identification of a κ-opioid agonist as a potent and selective lead for drug development against human African trypanosomiasis” (Biochemical Pharmacology, 2010)
